Experimental data reported in the supplement of paper PMC3334620.
The full ranking holds about 33,000 sequences; the median of “E-score (-0.5 to 0.5)” is about -0.0034, and the highest 2% start at about 0.25. The list shows a part of the results.

Target: T1, Yap3 (UniProt P38749)
T1 sequence: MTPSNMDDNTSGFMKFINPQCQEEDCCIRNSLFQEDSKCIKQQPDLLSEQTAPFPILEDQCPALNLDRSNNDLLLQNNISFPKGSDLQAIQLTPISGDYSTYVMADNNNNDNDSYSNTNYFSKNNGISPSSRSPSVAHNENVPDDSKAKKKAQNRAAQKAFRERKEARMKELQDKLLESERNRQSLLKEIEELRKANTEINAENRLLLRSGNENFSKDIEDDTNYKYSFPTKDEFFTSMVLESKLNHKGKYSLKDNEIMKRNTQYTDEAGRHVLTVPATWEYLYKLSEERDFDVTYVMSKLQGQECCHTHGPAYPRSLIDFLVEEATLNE
Test: PBM E-score (8-mer binding enrichment) (E-score (-0.5 to 0.5)); higher = stronger / more preferred TF binding
Settings: protein concentration: 100 nM; construct: GST-full length
Summary of the method: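 Detection of bound protein used fluorescent anti-GST, with scans normalised by masliner. The proteins were GST-tagged yeast transcription factors applied at about 100-200 nM to universal all-10-mer Agilent arrays made double-stranded by primer extension. Each ungapped eight-base word, pooled with its reverse complement, was scored with an E-score from the Universal PBM Analysis Suite.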

Sequence | PBM E-score
CGGTGTGA | 0.115
GAATGCGC | 0.124
ATGACTAA | 0.431
CCTGGGGA | -0.423
ACAGGGAT | -0.0719
ATCGAAGC | -0.0904
CATGCGAG | -0.0122
AAGAAAGG | -0.0192
AGCTTCAG | -0.234
AGAAAATG | 0.0715
GCTGAGCC | -0.154
CGTCGTTC | 0.209
CAGGGACC | -0.266
ACCAACCA | 0.00621
CAGGTAAA | 0.242
GGTTGACA | -0.0206
ACATAACT | 0.192
CACACCGA | 0.0421
ACTCGGCG | -0.0597
CTTGCTAA | -0.194
CGTTTACA | 0.0626
CCATCTAG | -0.112
GCTGCTAC | -0.191
GATACTGA | 0.0116
GGGCCGAC | -0.119

Sequence | PBM E-score
CCCATTAC | 0.0821
CCACCAAA | 0.00978
ACCGTATG | -0.0219
ACCAAGAT | -0.00908
AGTGAAGG | 0.0123
CCTGGGTA | -0.172
CATGAGAA | 0.0305
CTTCCGTC | -0.101
AGCCCCAT | -0.171
CCATGGGA | -0.00213
CCGGGGCA | -0.245
AAAACCCT | 0.0535
CCATTCAC | -0.0318
CGGCGTGC | -0.259
AACTCATC | 0.0719
GGGCTAAC | -0.234
CCGAAACC | -0.155
ACTCCATG | -0.184
CACGCTAG | 0.0997
GTAATCCA | 0.236
AACGGAAG | 0.2
CCGTTCAA | 0.0445
AGAATCAA | 0.0192
AACACTGA | 0.245
CTATTGCC | -0.0289

Sequence | PBM E-score
GCAGAGCC | -0.261
ACGTGGAA | 0.0425
AGGGAGAC | -0.229
CCTCTGGC | -0.019
TTCGAAAA | 0.189
TAGCAGAA | 0.122
ATTTAGCA | 0.111
AGGATGAG | 0.0242
CGCGAATC | 0.0799
ACCAAGAA | 0.135
ATACTCCC | -0.108
AAGTAGTA | 0.0994
CTTGGCCC | -0.255
GGATCCCC | -0.271
CATCTGCA | 0.101
GTGCTACA | -0.0146
GTTGCCCA | 0.0716
AGCTTGTG | 0.0192
AAATACAA | 0.197
CGGGGGTC | -0.482
AAGTATCC | -0.00257
AACTGTAG | 0.116
CGGACACG | -0.068
CCGGCTCG | -0.157
CGACGAGA | -0.00791

Quoted from the entries so far (53 entries):
Sequence | PBM E-score
CGTTTACA | 0.0626
CCATCTAG | -0.112
GCTGCTAC | -0.191
GATACTGA | 0.0116
GGGCCGAC | -0.119
CCCATTAC | 0.0821
CCACCAAA | 0.00978
ACCGTATG | -0.0219
ACCAAGAT | -0.00908
AGTGAAGG | 0.0123
CCTGGGTA | -0.172
CATGAGAA | 0.0305
CTTCCGTC | -0.101
AGCCCCAT | -0.171
CCATGGGA | -0.00213
CCGGGGCA | -0.245
AAAACCCT | 0.0535
CCATTCAC | -0.0318
CGGCGTGC | -0.259
AACTCATC | 0.0719
GGGCTAAC | -0.234
CCGAAACC | -0.155
ACTCCATG | -0.184
CACGCTAG | 0.0997
GTAATCCA | 0.236
AACGGAAG | 0.2
CCGTTCAA | 0.0445
AGAATCAA | 0.0192
AACACTGA | 0.245
CTATTGCC | -0.0289
GCAGAGCC | -0.261
ACGTGGAA | 0.0425
AGGGAGAC | -0.229
CCTCTGGC | -0.019
TTCGAAAA | 0.189
TAGCAGAA | 0.122
ATTTAGCA | 0.111
AGGATGAG | 0.0242
CGCGAATC | 0.0799
ACCAAGAA | 0.135
ATACTCCC | -0.108
AAGTAGTA | 0.0994
CTTGGCCC | -0.255
GGATCCCC | -0.271
CATCTGCA | 0.101
GTGCTACA | -0.0146
GTTGCCCA | 0.0716
AGCTTGTG | 0.0192
AAATACAA | 0.197
CGGGGGTC | -0.482
AAGTATCC | -0.00257
AACTGTAG | 0.116
CGGACACG | -0.068

More results.

Sequence | PBM E-score
GGGAACCC | -0.179
CATGAAAA | 0.177
CACTTCGC | -0.00449
GCCTGTAC | -0.0409
CCATCAAC | 0.18
ATGGGGCC | -0.352
AACAGAGA | 0.0937
CTATGTTC | 0.0857
AATAGTAT | 0.229
CAATGAAG | -0.0559
AACGGTTA | -0.00989
AACTTATT | 0.21
ACACTAGC | -0.0156
GCCAGCGA | -0.174
AATAAGTC | 0.0193
AGACCACT | 0.00102
AATTCTGC | 0.129
GAGTGGGC | -0.129
AAGCGGCG | -0.131
AGATTTGG | -0.12
CCGACTCG | -0.0307
TACATCAA | 0.082
CACAACCA | 0.164
TCAGAGAA | -0.045
AGACAAAT | 0.212

Sequence | PBM E-score
CTTCGCTA | 0.0221
CGATTACC | -0.0743
AGGCTAAG | -0.113
ACCGTATC | 0.0318
CATATAAG | 0.113
CGTGAACC | -0.157
AACACAGG | -0.0592
AGAGGATG | 0.0351
ACCTCACG | 0.00135
CTAATGCC | -0.0329
GGTATCGA | 0.101
GCCTCTTA | 0.0137
CTCTCAAC | -0.119
GTAACAAA | 0.174
CACTGACC | -0.061
AGTTCGAA | 0.164
CTTCGGTA | -0.0668
GAGCTACC | -0.145
CCAATAAG | -0.00656
GCTGTGCC | -0.134
ACGCCTTA | -0.155
CCACGGAA | 0.0091
GAAGTCGC | 0.0657
GTATCCGA | -0.0824
TGCCCGAA | 0.0181

Sequence | PBM E-score
GAGAAGCC | -0.0957
CCACTAGG | -0.201
AATACCGC | 0.0473
CTTCATAA | 0.0897
ATTTTCCA | 0.13
CGACAACA | 0.152
GGTCGCAC | -0.0706
ACTTCCAT | 0.00262
GGGTCCTA | -0.127
CATTGACC | 0.216
TGATATAA | 0.108
ACTACAGA | 0.144
ACTGCTTG | -0.253
ATCCCCTG | -0.237
AAAACGAG | 0.0188
CGTCAGTA | -0.13
AGGTTTAA | 0.0408
GAGGGAGC | -0.251
CCGGCGAG | -0.0273
AGGCGTGC | 0.016
TAGGGAGA | -0.0269
ATTCAGTG | 0.129
AGACTATC | 0.0563
ACAGTAGG | -0.0832
AGCGCACG | -0.0432

Sequence | PBM E-score
ATGCTGAA | 0.0042
AAGCCATC | 0.109
ATCGCGCA | 0.00588
GAACACAA | 0.089
GCCTCTCC | -0.275
AATATTAG | 0.239
GTCATCAC | -0.00817
TCCTTAGA | -0.141
AGACCTGA | 0.0621
CACGTCCA | -0.153
ATTAGTTA | 0.291
CAGCCGAC | -0.182
TATTAGGA | 0.129
CCTCACTA | -0.0473
AAACAGAA | 0.19
ATCGGCCC | -0.0684
AATTCCAA | 0.15
CGGCGTAA | 0.172
CTCATACA | 0.0806
CTTCCAGA | 0.0386
ACACGCAG | -0.18
GGGATAAA | 0.172
